In PMC6071395:
These are yes or no findings as the source states them, for the method shown. In cells and extracts the contact can be indirect. Some results given as binding are weak or reduced against the parent protein; the word gives no strength.

Chains of the proteins cited; added tags and fusions are not shown.
UniProt Q15910: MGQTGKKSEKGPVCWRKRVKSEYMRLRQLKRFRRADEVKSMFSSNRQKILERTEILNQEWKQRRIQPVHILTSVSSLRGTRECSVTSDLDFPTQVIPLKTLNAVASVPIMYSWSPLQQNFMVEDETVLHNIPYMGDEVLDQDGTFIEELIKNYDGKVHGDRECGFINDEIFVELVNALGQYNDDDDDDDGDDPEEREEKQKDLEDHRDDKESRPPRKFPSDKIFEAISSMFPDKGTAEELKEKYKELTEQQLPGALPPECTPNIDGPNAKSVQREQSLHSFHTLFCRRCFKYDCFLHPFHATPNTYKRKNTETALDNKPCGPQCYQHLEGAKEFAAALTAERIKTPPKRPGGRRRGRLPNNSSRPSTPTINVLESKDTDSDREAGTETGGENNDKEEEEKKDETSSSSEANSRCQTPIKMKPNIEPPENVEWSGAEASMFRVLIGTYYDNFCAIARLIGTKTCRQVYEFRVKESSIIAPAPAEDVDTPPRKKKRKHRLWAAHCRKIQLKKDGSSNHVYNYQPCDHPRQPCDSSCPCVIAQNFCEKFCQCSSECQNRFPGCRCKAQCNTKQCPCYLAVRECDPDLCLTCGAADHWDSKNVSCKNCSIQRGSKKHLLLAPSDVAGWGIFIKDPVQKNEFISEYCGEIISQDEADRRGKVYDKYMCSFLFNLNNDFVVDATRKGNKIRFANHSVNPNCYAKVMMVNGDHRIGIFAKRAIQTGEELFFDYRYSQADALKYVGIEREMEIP
UniProt P12004: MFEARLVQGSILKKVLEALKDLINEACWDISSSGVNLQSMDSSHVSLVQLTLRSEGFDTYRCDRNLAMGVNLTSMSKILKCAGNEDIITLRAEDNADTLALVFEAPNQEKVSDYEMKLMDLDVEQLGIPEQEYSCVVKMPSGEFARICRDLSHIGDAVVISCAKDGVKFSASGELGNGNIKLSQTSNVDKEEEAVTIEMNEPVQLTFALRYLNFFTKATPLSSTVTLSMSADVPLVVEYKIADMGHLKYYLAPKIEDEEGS

Legend:
[1] = molecular target: Enhancer of zeste homologue 2 (EZH2), endogenous (human (endogenous in hDPCs and 293T)) (UniProt Q15910); assay: proximity ligation; anti-EZH2 (goat) and anti-PCNA (mouse) antibodies in fixed hDPCs in S phase
[2] = molecular target: Enhancer of zeste homologue 2 (EZH2), endogenous (human (endogenous in hDPCs and 293T)) (UniProt Q15910); assay: co-IP; endogenous EZH2 and PCNA from lysate of hDPCs synchronized at S phase; agarose-immobilized antibodies overnight at 4 °C, IgG as control, western blot
[3] = molecular target: FLAG-tagged full-length EZH2 (wild type) (UniProt Q15910); assay: co-IP; 293T cells transfected with FLAG-tagged EZH2, EZH2∆SET or EZH2∆PIP; IP with FLAG antibody, blot for endogenous PCNA; IgG as control

binding [1]: binds
binding [2]: binds
binding [3]: binds
Substance: Proliferating cell nuclear antigen (PCNA), endogenous (from UniProt P12004 1-261)
